Test [1] deals with T1, Flag-PFKP (human) (UniProt Q01813).
T1 sequence: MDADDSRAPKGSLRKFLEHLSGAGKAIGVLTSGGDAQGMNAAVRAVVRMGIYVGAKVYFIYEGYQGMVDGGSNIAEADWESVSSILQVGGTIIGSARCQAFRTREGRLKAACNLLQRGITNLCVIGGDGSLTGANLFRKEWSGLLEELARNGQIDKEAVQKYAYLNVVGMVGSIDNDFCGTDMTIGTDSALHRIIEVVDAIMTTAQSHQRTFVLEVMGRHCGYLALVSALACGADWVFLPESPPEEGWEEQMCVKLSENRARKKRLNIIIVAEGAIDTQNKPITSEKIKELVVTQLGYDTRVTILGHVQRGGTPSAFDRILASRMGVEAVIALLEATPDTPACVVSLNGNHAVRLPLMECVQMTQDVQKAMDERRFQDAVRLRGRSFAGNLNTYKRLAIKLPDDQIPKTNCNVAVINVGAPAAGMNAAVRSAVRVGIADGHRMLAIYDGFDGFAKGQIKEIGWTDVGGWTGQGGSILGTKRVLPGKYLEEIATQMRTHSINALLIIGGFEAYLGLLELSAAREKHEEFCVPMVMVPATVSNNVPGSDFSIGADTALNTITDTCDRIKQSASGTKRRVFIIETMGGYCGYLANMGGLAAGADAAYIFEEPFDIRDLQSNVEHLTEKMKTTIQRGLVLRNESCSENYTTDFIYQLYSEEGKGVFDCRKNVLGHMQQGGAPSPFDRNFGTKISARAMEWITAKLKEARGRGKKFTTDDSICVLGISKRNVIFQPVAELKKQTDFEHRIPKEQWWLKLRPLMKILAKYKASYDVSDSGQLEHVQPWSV
The experiment in a line: co-IP; Flag-PFKP and HA-AKT1/2 expressed in 293T cells.

Amino acid sequences for entries named in this document (tags omitted).
UniProt P31749: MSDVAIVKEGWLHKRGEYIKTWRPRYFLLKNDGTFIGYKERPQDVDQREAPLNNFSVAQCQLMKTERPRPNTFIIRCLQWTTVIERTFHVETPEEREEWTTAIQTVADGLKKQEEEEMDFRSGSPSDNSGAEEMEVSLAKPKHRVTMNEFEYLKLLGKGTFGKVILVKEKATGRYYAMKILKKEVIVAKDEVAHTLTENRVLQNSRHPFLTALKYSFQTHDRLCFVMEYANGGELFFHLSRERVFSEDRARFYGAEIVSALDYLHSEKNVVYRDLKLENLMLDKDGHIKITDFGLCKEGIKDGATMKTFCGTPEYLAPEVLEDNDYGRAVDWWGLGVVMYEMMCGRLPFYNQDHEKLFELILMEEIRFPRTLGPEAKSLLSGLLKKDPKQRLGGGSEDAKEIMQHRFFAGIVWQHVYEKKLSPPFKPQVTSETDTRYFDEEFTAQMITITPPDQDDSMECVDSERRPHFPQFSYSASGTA
UniProt P31751: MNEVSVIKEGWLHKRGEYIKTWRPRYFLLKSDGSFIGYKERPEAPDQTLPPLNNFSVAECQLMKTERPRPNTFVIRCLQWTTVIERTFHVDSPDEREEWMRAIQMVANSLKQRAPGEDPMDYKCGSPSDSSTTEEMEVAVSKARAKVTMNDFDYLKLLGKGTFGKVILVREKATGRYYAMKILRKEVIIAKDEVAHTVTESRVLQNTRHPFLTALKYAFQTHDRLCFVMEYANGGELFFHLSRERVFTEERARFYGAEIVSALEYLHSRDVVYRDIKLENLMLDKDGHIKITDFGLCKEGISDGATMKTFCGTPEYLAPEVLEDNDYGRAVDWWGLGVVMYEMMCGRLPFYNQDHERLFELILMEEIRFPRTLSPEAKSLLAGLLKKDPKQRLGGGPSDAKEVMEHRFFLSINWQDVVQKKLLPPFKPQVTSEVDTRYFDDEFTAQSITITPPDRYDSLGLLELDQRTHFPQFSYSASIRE
UniProt P19474: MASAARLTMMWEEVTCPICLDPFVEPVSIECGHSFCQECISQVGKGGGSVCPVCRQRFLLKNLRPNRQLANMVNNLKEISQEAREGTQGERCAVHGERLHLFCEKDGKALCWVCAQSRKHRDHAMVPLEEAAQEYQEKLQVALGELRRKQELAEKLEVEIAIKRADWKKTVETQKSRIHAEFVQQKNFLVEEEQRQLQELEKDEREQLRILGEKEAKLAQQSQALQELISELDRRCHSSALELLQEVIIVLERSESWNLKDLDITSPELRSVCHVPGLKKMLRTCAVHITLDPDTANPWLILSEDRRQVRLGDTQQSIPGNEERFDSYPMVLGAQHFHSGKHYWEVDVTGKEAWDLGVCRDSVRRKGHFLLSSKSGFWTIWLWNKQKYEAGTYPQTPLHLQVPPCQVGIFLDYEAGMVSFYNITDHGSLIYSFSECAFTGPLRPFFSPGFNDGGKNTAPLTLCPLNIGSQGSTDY

The target in test [2] is T2, SFB-PFKP (human) (UniProt Q01813).
T2 sequence: T1 sequence
As to the kind of experiment: pull-down; 293T cells co-transfected with SFB-PFKP and WT HA-TRIM21 or its truncation mutants for 24 h; pull-down of SFB-PFKP.

Results are given in words; binding and its absence hold for the method and conditions named. Binding seen in cells or lysates may run through a third protein. Some binding calls cover weakened binding; strength is not graded here. For part of these data: Sequences can lack the tags named with a protein.

Take HA-AKT1 (from UniProt P31749 1-480): the binding result in test [1] was “binds”.
Turning to HA-AKT2 (from UniProt P31751 1-481), the binding result in test [1] is “binds”.
On to “WT HA-TRIM21 (from UniProt P19474 1-475)”, for which the binding entry in test [2] was “binds”.

The values are drawn from article PMC5643558.
